Some of the results follow.
Legend:
Assay in all cases: glycan array binding signal (z-score within array); higher = stronger binding
Settings in all cases: glycan notation: IUPAC condensed, linker removed
[1] = molecular target: Gal(a1-3)[Gal(a1-4)]Gal(b1-4)GlcNAc
How it was run: (§1)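 From the Consortium for Functional Glycomics database, 3228 arrays were curated, keeping only those whose protein sequence was available. Binding is given as a within-array Z-score averaged across arrays sharing a protein sequence and across linkers. Negative Z-scores can be read as non-binding.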

[2] = molecular target: Gal(a1-4)Gal(b1-3)GlcNAc(b1-2)Man(a1-3)[Gal(a1-4)Gal(b1-3)GlcNAc(b1-2)Man(a1-6)]Man(b1-4)GlcNAc(b1-4)GlcNAc
How it was run: as §1

Gal(a1-4)Gal(b1-4)Glc = molecular target: Gal(a1-4)Gal(b1-4)Glc
How it was run: as §1

Gal(a1-4)Gal(b1-4)GlcNAc = molecular target: Gal(a1-4)Gal(b1-4)GlcNAc
How it was run: as §1

[3] = molecular target: Gal(a1-4)Gal(b1-4)GlcNAc(b1-2)Man(a1-3)[Gal(a1-4)Gal(b1-4)GlcNAc(b1-2)Man(a1-6)]Man(b1-4)GlcNAc(b1-4)GlcNAc
How it was run: as §1

[4] = molecular target: Gal(a1-4)Gal(b1-4)GlcNAc(b1-3)Gal(b1-4)Glc
How it was run: as §1

Gal(a1-4)GlcNAc = molecular target: Gal(a1-4)GlcNAc
How it was run: as §1

Gal(a1-6)Glc = molecular target: Gal(a1-6)Glc
How it was run: as §1

Gal(b1-2)Gal = molecular target: Gal(b1-2)Gal
How it was run: as §1

Gal(b1-3)Gal = molecular target: Gal(b1-3)Gal
How it was run: as §1

Gal(b1-3)Gal(b1-4)GlcNAc = molecular target: Gal(b1-3)Gal(b1-4)GlcNAc
How it was run: as §1

Gal(b1-3)GalNAc = molecular target: Gal(b1-3)GalNAc
How it was run: as §1

[5] = molecular target: Gal(b1-3)GalNAc(a1-3)[Fuc(a1-2)]Gal(b1-4)Glc
How it was run: as §1

[6] = molecular target: Gal(b1-3)GalNAc(a1-3)[Fuc(a1-2)]Gal(b1-4)GlcNAc
How it was run: as §1

Gal(b1-3)GalNAc(b1-3)Gal = molecular target: Gal(b1-3)GalNAc(b1-3)Gal
How it was run: as §1

[7] = molecular target: Gal(b1-3)GalNAc(b1-3)Gal(a1-4)Gal(b1-4)Glc
How it was run: as §1

[8] = molecular target: Gal(b1-3)GalNAc(b1-4)Gal(b1-4)Glc
How it was run: as §1

[9] = molecular target: Gal(b1-3)GalNAc(b1-4)[Neu5Ac(a2-3)]Gal(b1-4)Glc
How it was run: as §1

Gal(b1-3)GlcNAc = molecular target: Gal(b1-3)GlcNAc
How it was run: as §1

[10] = molecular target: Gal(b1-3)GlcNAc(a1-3)Gal(b1-4)GlcNAc
How it was run: as §1

[11] = molecular target: Gal(b1-3)GlcNAc(a1-6)Gal(b1-4)GlcNAc
How it was run: as §1

Gal(b1-3)GlcNAc(b1-2)Man = molecular target: Gal(b1-3)GlcNAc(b1-2)Man
How it was run: as §1

[12] = molecular target: Gal(b1-3)GlcNAc(b1-2)Man(a1-3)[Gal(b1-3)GlcNAc(b1-2)Man(a1-6)]Man(b1-4)GlcNAc(b1-4)GlcNAc
How it was run: as §1

[13] = molecular target: Gal(b1-3)GlcNAc(b1-2)Man(a1-3)[Gal(b1-3)GlcNAc(b1-2)Man(a1-6)]Man(b1-4)GlcNAc(b1-4)[Fuc(a1-6)]GlcNAc
How it was run: as §1

[14] = molecular target: Gal(b1-3)GlcNAc(b1-2)Man(a1-3)[GlcNAc(b1-4)][Gal(b1-3)GlcNAc(b1-2)Man(a1-6)]Man(b1-4)GlcNAc(b1-4)GlcNAc
How it was run: as §1

[15] = molecular target: Gal(b1-3)GlcNAc(b1-2)[Gal(b1-3)GlcNAc(b1-6)]Man(a1-6)[Gal(b1-3)GlcNAc(b1-2)Man(a1-3)]Man(b1-4)GlcNAc(b1-4)GlcNAc
How it was run: as §1

[16] = molecular target: Gal(b1-3)GlcNAc(b1-3)Gal(b1-3)GlcNAc
How it was run: as §1

[17] = molecular target: Gal(b1-3)GlcNAc(b1-3)Gal(b1-4)Glc
How it was run: as §1

[18] = molecular target: Gal(b1-3)GlcNAc(b1-3)Gal(b1-4)GlcNAc
How it was run: as §1

[19] = molecular target: Gal(b1-3)GlcNAc(b1-3)Gal(b1-4)GlcNAc(b1-2)Man(a1-3)[Gal(b1-3)GlcNAc(b1-3)Gal(b1-4)GlcNAc(b1-2)Man(a1-6)]Man(b1-4)GlcNAc(b1-4)GlcNAc
How it was run: as §1

[20] = molecular target: Gal(b1-3)GlcNAc(b1-3)Gal(b1-4)GlcNAc(b1-2)[Gal(b1-3)GlcNAc(b1-3)Gal(b1-4)GlcNAc(b1-6)]Man(a1-6)[Gal(b1-3)GlcNAc(b1-3)Gal(b1-4)GlcNAc(b1-2)Man(a1-3)]Man(b1-4)GlcNAc(b1-4)[Fuc(a1-6)]GlcNAc
How it was run: as §1

[21] = molecular target: Gal(b1-3)GlcNAc(b1-3)Gal(b1-4)GlcNAc(b1-3)Gal(b1-4)GlcNAc(b1-2)[Gal(b1-3)GlcNAc(b1-3)Gal(b1-4)GlcNAc(b1-3)Gal(b1-4)GlcNAc(b1-6)]Man(a1-6)[Gal(b1-3)GlcNAc(b1-3)Gal(b1-4)GlcNAc(b1-3)Gal(b1-4)GlcNAc(b1-2)Man(a1-3)]Man(b1-4)GlcNAc(b1-4)[Fuc(a1-6)]GlcNAc
How it was run: as §1

[22] = molecular target: Gal(b1-3)GlcNAc(b1-3)Gal(b1-4)GlcNAc(b1-6)[Gal(b1-3)GlcNAc(b1-3)]Gal(b1-4)Glc
How it was run: as §1

[23] = molecular target: Gal(b1-3)GlcNAc(b1-3)Gal(b1-4)[Fuc(a1-3)]GlcNAc
How it was run: as §1

[24] = molecular target: Gal(b1-3)GlcNAc(b1-3)Gal(b1-4)[Fuc(a1-3)]GlcNAc(b1-6)[Gal(b1-3)GlcNAc(b1-3)]Gal(b1-4)Glc
How it was run: as §1

[25] = molecular target: Gal(b1-3)GlcNAc(b1-3)GalNAc
How it was run: as §1

[26] = molecular target: Gal(b1-3)GlcNAc(b1-6)Gal(b1-4)GlcNAc
How it was run: as §1

[27] = molecular target: Gal(b1-3)GlcNAc(b1-6)GalNAc
How it was run: as §1

B1: GS13599A-bth-520-23-520 (Bacteroides thetaiotaomicron) (protein)
chain: SEDTMDRINKDHDHTTSVASRFILADVITSTAFSNASGDINTYASSYIEYEVGVDNQLYYAEVRENEPSSSSTFNNSWNGIYSSLKNARIIIDQCGEGGRDHGNDVTRGMAEVMAAYNCALIADFFGDAPCSQAALVDEKGSPVYMTPKMDTQQEIYTQIISYLDDAIANLQKEDLADVTEQDFLYAGDADKWLKFAYGLKARYTMRLINRSSNKSADYEKVLDYVSKSFTSADDQAAFDIYDSNNINPFYGFYNSRAGFGASTSLGTKLLAYNDPRANRAFFTPIVDKKRSQVAANDPSLVPAPNGSPDQSTSKYGISAFVYAKTAPTLLMSYHELMFLKAEALCRLNRDAEDALKEAVVAGLLNAENSISIAIKELGSGLNTNSSEVITETSAGKYFDDVVKAKYAANPLQETMIQKYLAMWGASGEATETYNDFRRMKGLNENFITLTNPNNSSKFPLRYPYGNSDTAANPEVKAAYGNGDYVYSEPVWWAGGSR
[1]
  glycan array binding signal (z-score): 1.41
[2]
  glycan array binding signal (z-score): 1.13
Gal(a1-4)Gal(b1-4)Glc
  glycan array binding signal (z-score): 0.257
Gal(a1-4)Gal(b1-4)GlcNAc
  glycan array binding signal (z-score): -0.121
[3]
  glycan array binding signal (z-score): 0.106
[4]
  glycan array binding signal (z-score): -0.078
Gal(a1-4)GlcNAc
  glycan array binding signal (z-score): 0.278
Gal(a1-6)Glc
  glycan array binding signal (z-score): -1.08
Gal(b1-2)Gal
  glycan array binding signal (z-score): 0.033
Gal(b1-3)Gal
  glycan array binding signal (z-score): -1.44
Gal(b1-3)Gal(b1-4)GlcNAc
  glycan array binding signal (z-score): 1.59
Gal(b1-3)GalNAc
  glycan array binding signal (z-score): -0.399
[5]
  glycan array binding signal (z-score): 0.256
[6]
  glycan array binding signal (z-score): -0.813
Gal(b1-3)GalNAc(b1-3)Gal
  glycan array binding signal (z-score): 0.596
[7]
  glycan array binding signal (z-score): -0.746
[8]
  glycan array binding signal (z-score): 0.841
[9]
  glycan array binding signal (z-score): 1.48
Gal(b1-3)GlcNAc
  glycan array binding signal (z-score): 0.238
[10]
  glycan array binding signal (z-score): 0.206
[11]
  glycan array binding signal (z-score): -0.858
Gal(b1-3)GlcNAc(b1-2)Man
  glycan array binding signal (z-score): 0.604
[12]
  glycan array binding signal (z-score): -0.213
[13]
  glycan array binding signal (z-score): -0.333
[14]
  glycan array binding signal (z-score): 0.198
[15]
  glycan array binding signal (z-score): 0.978
[16]
  glycan array binding signal (z-score): 1.33
[17]
  glycan array binding signal (z-score): -0.42
[18]
  glycan array binding signal (z-score): -1.19
[19]
  glycan array binding signal (z-score): -0.152
[20]
  glycan array binding signal (z-score): 2.93
[21]
  glycan array binding signal (z-score): 2
[22]
  glycan array binding signal (z-score): 1.25
[23]
  glycan array binding signal (z-score): -0.913
[24]
  glycan array binding signal (z-score): -0.372
[25]
  glycan array binding signal (z-score): 0.574
[26]
  glycan array binding signal (z-score): 0.064
[27]
  glycan array binding signal (z-score): -1.17

Source: the supplement of paper PMC8728848
